These are yes or no findings as the source states them, for the method shown. In cells and extracts the contact can be indirect. Here binding means that the protein was enriched with, or labelled near, the bait; the list need not be complete.
Target: TAP-tagged Wdr70 (fission yeast) (fission yeast (S. pombe))
Assay: affinity purification with mass spectrometry

| binding | Binder |
| --- | --- |
| binds | Pcu4 (Cullin 4 homolog) (protein, UniProt O14122 1-734) MPPEAKRIVVKGFDPRKSRQRQETYYVTMIDRLNMALQVVMAGLGLKTGYQELYSGVENLTRADQASRCFNILQHHMSSGIQLLKDSAESFIQLEGTETDTNACTVVVGCWNKWLERVEIVQNIFYYMDKTFLSHHPDYPTIEELSLSLFREKLMAVKNIQIPFLNSLLQSFENLHSSKSTDHAYLQDAMLMLHRTEMYSSVFVPMYLVMLSRFYDTESSQKIQELPLEEYLEYAMSSLEREDAYVEKFDIVRDKKSIRETVQRCLITSHLDTLTKGISQFIEKRDAHSCKLLYALLQFNHETEYLIQPWSDCLVDVGFKLVNDESKDDTLVQELLSFHKFLQVVVDESFLHDETLSYAMRKAFETFINGAKGSQREAPARLIAKYIDYLLRVGEQASGGKPLKEVFSEILDLFRYIASKDIFEAYYKLDIAKRLLLNKSASAQNELMLLDMLKKTCGSQFTHSLEGMFRDVNISKEFTSSFRHSKAAHNLHRDLYVNVLSQAYWPSYPESHIRLPDDMQQDLDCFEKFYLSKQVGKKISWYASLGHCIVKARFPLGNKELSISLFQACVLLQFNNCLGGEGISYQDLKKSTELSDIDLTRTLQSLSCARIRPLVMVPKSKKPSPDTMFYVNEKFTDKLYRVKINQIYLKEERQENSDVQEQVVRDRQFELQASIVRVMKQKEKMKHDDLVQYVINNVKDRGIPLVSDVKTAIEKLLEKEYLEREDNDIYTYVT |
| binds | Rpn13b (fission yeast ADRM1 homolog) (protein, UniProt Q9USM1 1-388) MESVFGRVRNETSERGKYGLVSVKAGKLQRKPGTNILQADHRKGVIYMQMASDELLHFYWKERARVSREVEDDYIIFPEEAEFIKIDECTTGRVYALKFKSSSQIHFYWMQEYSDEKDKETASLINQLIADPVNTTRTINSHNNSSSRGTDDSSTSQLLQLFGAASQDALQDFNWEVLSPTAEAPAILPRFPNVNESANMYRASSESNLNGPHATAGENGEDHEEATASPLDENIDYTHSRTLELLEQLQPLILNETTFVEPFSIDRESHRVITHPRVYPKIFPHSPSDLLRISGRAELSENRDFFKHLSSLMEAVAKPESESLREICNLSLEQVQSASGAELFLHALYDRLVNEGVIVISHITQEGSDGEVEEEGDVEMRESNEKDE |
